Measured values taken from article PMC5333915.
No constants are given. Whether binding was seen depends on the method and setting. In cells and extracts the contact can be indirect. Sequences can lack the tags named with a protein.

Target: T1, Suppressor of Gene Silencing 3 from Nicotiana benthamiana (NbSGS3), BiFC fusion (Nicotiana benthamiana) (UniProt X4YFK1)
T1 sequence: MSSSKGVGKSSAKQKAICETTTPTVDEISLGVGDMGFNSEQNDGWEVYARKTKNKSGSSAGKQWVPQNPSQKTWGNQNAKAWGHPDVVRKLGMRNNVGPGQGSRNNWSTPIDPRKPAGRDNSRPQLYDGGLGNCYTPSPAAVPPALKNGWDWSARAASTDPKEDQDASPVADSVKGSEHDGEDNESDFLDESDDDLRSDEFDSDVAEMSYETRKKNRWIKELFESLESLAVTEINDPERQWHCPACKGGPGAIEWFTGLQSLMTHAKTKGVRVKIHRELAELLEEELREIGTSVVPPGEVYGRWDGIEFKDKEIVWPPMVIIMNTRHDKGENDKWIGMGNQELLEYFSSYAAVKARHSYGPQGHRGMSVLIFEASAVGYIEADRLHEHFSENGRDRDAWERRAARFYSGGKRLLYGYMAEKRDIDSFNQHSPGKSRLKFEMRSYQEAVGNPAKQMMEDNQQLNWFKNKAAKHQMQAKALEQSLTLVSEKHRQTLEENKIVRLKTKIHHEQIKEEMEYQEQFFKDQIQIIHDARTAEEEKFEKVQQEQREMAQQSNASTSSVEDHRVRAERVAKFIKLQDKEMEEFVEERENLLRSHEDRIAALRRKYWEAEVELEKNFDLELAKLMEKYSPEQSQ
Assay: split reporter; BiFC with 2YN and 2YC fragments of YFP, agroinfiltrated leaves of H2B-RFP transgenic N. benthamiana, confocal microscopy at 48 hpi

movement protein P3N-PIPO from Turnip mosaic virus (TuMV), BiFC fusion
binding: no binding
